Results reported in patent US11331319B2, “Combination treatment for neuropsychiatric disorders” (UNIVERSITY OF MASSACHUSETTS, priority 2017, dated 2022).
Entries after “also recorded” stand apart in the source; their conditions may differ. For part of these data: At least one read-out could not be matched to a standard name with certainty. For part of these data: At least one compound was matched to its structure with a doubt left.

Key:
IL-1β = test: Plasma IL-1β by ELISA (minocycline trial); type: in vivo, human; conditions: minocycline 200 mg per day, N = 27; fasting plasma; week 16 value minus baseline value; mean
Excerpt: (§1) After screening, each eligible subject underwent baseline assessments including the Scale for the Assessment of Negative Symptoms (SANS), the Positive and Negative Syndrome Scale (PANSS), and blood draw for lab tests. Andreasen N C., “Negative symptoms in schizophrenia: Definition and reliability” Arch. Gen. Psychiatry 39:784-788 (1982); and Kay et al., “The positive and negative syndrome scale (PANSS) for schizophrenia” Schizophr. Bull. 13:261-276 (1987). Subjects continued to take risperidone at the same dose throughout the study, and were randomized in a 1:1 ratio to receive either minocycline (200 mg per day) or placebo for 16 weeks. At week 16, baseline assessments were repeated.
(§2) Anthropometric measures included weight, height and body mass index (BMI). Blood samples were obtained 11 h (±1 h) after the completion of the last meal the night before. Subjects were allowed to drink water during the fasting period. Laboratory assays for plasma levels of TNFα, and IL-1β were performed using the enzyme-linked immunosorbent assay (ELISA) (Bender Med Systems GmbH Campus Vienna Biocenter 2 A-1030 Vienna, Austria, Europe). Plasma levels of NO metabolites (nitrites and nitrates) were measured using the Griess method (Cortas & Wakid 1990) (Nanjing Jiancheng Bioengineering Institute, China).
(§3) Statistical analysis was performed using SPSS (version 24.0, IBM Corp, Armonk, N.Y.). […]

TNFα = test: Plasma TNFα by ELISA (minocycline trial); type: in vivo, human; conditions: minocycline 200 mg per day, N = 27; fasting plasma; week 16 value minus baseline value; mean
Excerpt: as §1, §2, §3

NO synthase = conditions: tetracyclines including minocycline; cited from earlier work
[1] = tested on: mouse animal model of depression; conditions: cited from earlier work
ketamine treated mice = conditions: mouse, in vivo; cited from earlier work
[2] = tested on: lipopolysaccharide (LPS)-challenged human monocytes; conditions: LPS-induced transcription of TNF-α, IL-1β, IL-6, COX-2 and TNF-α, IL-6 release; cited from earlier work
schizophrenia symptoms = conditions: adjunctive minocycline, previous clinical studies; cited from earlier work
[3] = Table 3; cited from earlier work

| Compound | IL-1β plasma level, week 16 change (IL-1β) | TNF-α plasma level, week 16 change (TNFα) | Expression of NO synthase (NO synthase) | Depressive-like behavior [1] | Hippocampal nitrite level [1] | Behavioral changes in ketamine treated mice (ketamine treated mice) | Inflammatory response [2] | Effect on schizophrenia symptoms (schizophrenia symptoms) | Limitation: blood brain barrier permeability [3] |
| --- | --- | --- | --- | --- | --- | --- | --- | --- | --- |
| CN(C)c1ccc(O)c2c1C[C@H]1C[C@H]3[C@H](N(C)C)C(O)=C(C(N)=O)C(=O)[C@@]3(O)C(O)=C1C2=O [minocycline] | but not in plasma levels of IL-1β or TNF-α | but not in plasma levels of IL-1β or TNF-α | inhibit the expression of NO synthase | attenuated depressive-like behavior | decreased hippocampal nitrite level | capable of preventing and reversing the behavioral changes | significantly reduced the inflammatory response | may help improve schizophrenia symptoms, in particular negative symptoms; also recorded: significantly improved schizophrenia symptoms, in particular the negative symptoms | – |
| C[C@@H](N)C(=O)O [D-Alanine] | – | – | – | – | – | – | – | – | Lower permeability than D-serine, so higher doses |
